Binding data for two molecules are collected here from paper doi:10.1101/2024.07.12.603229.

By UniProt entry, the sequences of proteins in these tests, tags left out. Residues count along the entry.
UniProt O22476, residues 24-1196: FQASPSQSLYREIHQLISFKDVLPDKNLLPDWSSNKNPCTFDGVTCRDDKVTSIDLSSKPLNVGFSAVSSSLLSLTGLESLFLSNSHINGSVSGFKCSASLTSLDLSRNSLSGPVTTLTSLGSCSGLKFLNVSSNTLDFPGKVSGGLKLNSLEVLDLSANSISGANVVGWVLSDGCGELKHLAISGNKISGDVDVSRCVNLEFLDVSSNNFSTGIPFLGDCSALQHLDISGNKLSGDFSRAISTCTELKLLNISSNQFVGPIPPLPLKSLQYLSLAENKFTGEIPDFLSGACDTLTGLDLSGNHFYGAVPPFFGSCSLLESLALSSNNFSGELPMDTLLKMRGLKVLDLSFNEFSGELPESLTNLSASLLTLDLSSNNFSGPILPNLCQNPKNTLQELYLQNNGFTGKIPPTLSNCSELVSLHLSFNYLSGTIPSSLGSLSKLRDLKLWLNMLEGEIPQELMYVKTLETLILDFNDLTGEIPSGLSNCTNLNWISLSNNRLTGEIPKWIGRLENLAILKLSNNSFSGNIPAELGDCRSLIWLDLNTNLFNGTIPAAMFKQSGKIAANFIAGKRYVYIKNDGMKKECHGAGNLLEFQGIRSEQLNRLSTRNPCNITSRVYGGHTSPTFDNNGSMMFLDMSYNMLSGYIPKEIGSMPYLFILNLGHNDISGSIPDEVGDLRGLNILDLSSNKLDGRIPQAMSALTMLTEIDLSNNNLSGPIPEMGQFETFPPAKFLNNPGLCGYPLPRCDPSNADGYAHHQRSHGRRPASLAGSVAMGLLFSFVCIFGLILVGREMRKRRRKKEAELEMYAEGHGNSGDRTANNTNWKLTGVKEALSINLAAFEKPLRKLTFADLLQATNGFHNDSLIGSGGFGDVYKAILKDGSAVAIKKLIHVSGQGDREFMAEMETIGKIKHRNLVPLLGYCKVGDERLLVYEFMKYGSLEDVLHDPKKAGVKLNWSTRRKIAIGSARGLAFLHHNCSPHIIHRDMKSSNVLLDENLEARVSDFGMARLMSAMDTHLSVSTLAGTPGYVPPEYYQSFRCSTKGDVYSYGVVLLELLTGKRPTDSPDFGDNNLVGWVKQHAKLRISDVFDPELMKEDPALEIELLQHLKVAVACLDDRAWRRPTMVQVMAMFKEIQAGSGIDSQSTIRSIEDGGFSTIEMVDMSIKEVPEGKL

These are yes or no findings as the source states them, for the method shown. In cells and extracts the contact can be indirect. Some results given as binding are weak or reduced against the parent protein; the word gives no strength. Tags and fused reporters may be left off the sequences shown.

This assay concerns the target BRI1-mCitN (35S::BRI1-mCitN), BiFC fusion (Arabidopsis thaliana) (UniProt O22476). Put plainly: split reporter.

As to “BRI1-mCitN (35S::BRI1-mCitN), BiFC fusion (from UniProt O22476 24-1196) (receptor)”, the binding result is “binds”.

B1: LecRK-I.9-mCitC (35S::LecRK-I.9-mCitC), BiFC fusion (receptor, UniProt Q9LSR8 22-766)
chain: QQETSFVYESFLDRQNLYLDKSAIVLPSGLLQLTNASEHQMGHAFHKKPIEFSSSGPLSFSTHFVCALVPKPGFEGGHGIVFVLSPSMDFTHAESTRYLGIFNASTNGSSSYHVLAVELDTIWNPDFKDIDHNHVGIDVNSPISVAIASASYYSDMKGSNESINLLSGNPIQVWVDYEGTLLNVSVAPLEVQKPTRPLLSHPINLTELFPNRSSLFAGFSAATGTAISDQYILWWSFSIDRGSLQRLDISKLPEVPHPRAPHKKVSTLIILLPVCLAILVLAVLAGLYFRRRRKYSEVSETWEKEFDAHRFSYRSLFKATKGFSKDEFLGKGGFGEVYRGNLPQGREIAVKRVSHNGDEGVKQFVAEVVSMRCLKHRNLVPLFGYCRRKRELLLVSEYMPNGSLDEHLFDDQKPVLSWSQRLVVVKGIASALWYLHTGADQVVLHRDVKASNIMLDAEFHGRLGDFGMARFHEHGGNAATTAAVGTVGYMAPELITMGASTGTDVYAFGVFMLEVTCGRRPVEPQLQVEKRHMIKWVCECWKKDSLLDATDPRLGGKFVAEEVEMVMKLGLLCSNIVPESRPTMEQVVLYLNKNLPLPDFSPYTLGIGTFAPVLVDASSLVVSSASWSLSGPSMSSSSPNHSPYAWQSTDQPWGQTIDTKNSLHIVAEPEKPSPAVKMVTLPAEDPQSNHSSISSQRVQPVKREKRRLHQILVAFPWINKQYFKLGLPKHIVHVSLFFFLQLARL
Consider B1, for which the binding entry is on record as “no binding”.
